Results are given in words; binding and its absence hold for the method and conditions named. Some results given as binding are weak or reduced against the parent protein; the word gives no strength. Values belong to the binder of their own block, whether it stands above or below them.
Biological target: hα7/m5-HT3A chimera (human; mouse) (UniProt P23979)
Assay: phage cell-ELISA on Vero cells with hα7/m5-HT3A; clones with absorbance ratio (positive/control) above 3 were kept

binding: binds
B1: VHH α7F5 (VHH)
VHH: DVQLVESGGGLVQAGGSLRLSCAASGRTFSSYSMGWFRQAPGKEREFVAAINWSGGTTYYADSVKGRFTISRDNAKNTVYLQMNSLKPEDTAVYYCAAGGTTAQGMSVMTPRLGSWGQGTQVTVSS

binding: binds
B2: VHH α7C3 (VHH)
VHH: DVQLVESGGGLVQTGGSLRVSCAPSGRTVGTYTMGWFRQAPGENRDFVASISGAVGTTYYADSVQGRFTISRDNAKNTVYLQMNSLKPEDTAVYYCAAGSFPLTRTNYVQFWGQGTQVTVSS

binding: binds
B3: VHH α7B7 (VHH)
VHH: EVQLQASGGGLVQAGGSLRLSCAASGGTFSSYAIGWFRQTPGKEREFVAAISWSGVSTDYAGSVKGRFTISRDNAKNTVYLQMNSLKPEDTAVYYCAAARFGTSSPDDEYHYWGHGTQVTVSS

binding: binds
B4: VHH α7E6 (VHH)
VHH: QLQLVESGGGLVQPGGSLRLSCAASGFTLDYYTIGWFRQAPGKEREGVSCIRGSGGSTNYADSVKGRFTISRDNAKNTVYLQMNSLKPEDTAVYYCAADFLSTCSLAGYRYEEVWGQGTLVTVSS

binding: binds
B5: VHH α7F1 (VHH)
VHH: EVQLVESGGGLVQAGGSLRLSCAAPGITLSRYGMYGMGWFRQAPGKEREFVAAITWSGGQTYYQDSVKGRFTISRDNAKKLTFLQMNSLKPEDTAVYYCAADGDRFYPEPVVDDNAYKFWGQGTQVTVSS

— patent US20260176364A1
